In all, about 2,300 compounds were measured (“plate-normalized OD600 growth (mean of duplicates)”: median about 0.29, lowest 2% from about 0.22 on). Some of the results follow.
Test system: Escherichia coli BW25113
Assay: plate-normalized OD600 growth (mean of duplicates) (OD600 (normalized)); higher = more growth (less inhibition)
Conditions: 10 µM
Experimental: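 E. coli BW25113 in LB (100 µl, 96-well, no shaking) was exposed to 10 µM of each compound from a ~30,000-member library and grown at 37°C for 24 h or 15°C for 48 h, in duplicate. Growth was read as OD600 and the duplicate ODs were normalized across screening plates to correct plate-to-plate variation. Hits were >3σ below the mean OD600 at 15°C and <2σ below the mean at 37°C.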

Structure (SMILES)	plate-normalized OD600 growth (temperature: 15°C, 48 h)	plate-normalized OD600 growth (temperature: 37°C, 24 h)
Cc1ccc2c(c1)N(CCO)C(C)(C)CC2C (stereo unspecified)	0.211	0.651
CC(=O)CSc1nsc(SCC(C)=O)c1C#N	0.235	0.609
O=C(Nc1ccc2oc(-c3cccnc3)nc2c1)c1cccs1	0.229	0.605
Cc1ccc(S(=O)(=O)N=C(Nc2ccc(O)c(Cl)c2)c2ccccc2)cc1	0.232	0.618
CC(=O)CC(C)(C)S(=O)(=O)c1ccc(C)c(C)c1	0.242	0.605
CC(C)c1ncc(C(O)c2cccc3ccccc23)n1C (stereo unspecified)	0.249	0.63
Cc1ccc(N=Cc2cc(C)cc([N+](=O)[O-])c2O)c(Cl)c1	0.238	0.625
N#CC1=C(N)S[C@@H](C(=O)c2ccccc2)[C@@H]1c1cccnc1	0.249	0.612
CC(=Nc1ccccc1S(=O)(=O)O)c1c(O)c2ccccc2n(-c2ccccc2)c1=O	0.254	0.623
O=C1C(=Cc2ccc(Oc3ccc([N+](=O)[O-])cn3)cc2)C(=O)c2ccccc21	0.253	0.659
Cn1c(CSc2ccccc2)n[nH]c1=S	0.243	0.623
O=C(O)C(C(=O)/C=C/c1ccc2c(c1)OCO2)=C1SCCS1	0.257	0.621
Cc1nnc(SCC(=O)Nc2ccccn2)[nH]c1=O	0.257	0.623
COc1ccccc1/C=N/Nc1nc(Nc2cccc(Br)c2)nc(N2CCOCC2)n1	0.259	0.627
Cn1c(=O)n(C)c2cc(/C=N/Nc3ncc(F)c(N4CCOCC4)n3)ccc21	0.229	0.61
COc1cc(C(=O)Nc2c(C)n(C)n(-c3ccccc3)c2=O)c([N+](=O)[O-])cc1OC	0.263	0.655
CCOC(=O)CC(=O)CSc1nnc(N)s1	0.233	0.616
CCNCC(O)COc1ccc(C)cc1OC (stereo unspecified)	0.23	0.617
Cc1cc(C)c(OCC(=O)N2N=C3CCCCC3C2(O)C(F)(F)F)c(C)c1 (stereo unspecified)	0.23	0.641
COc1cccc(C(=O)CSc2nnc(Cn3cnc([N+](=O)[O-])n3)n2C)c1	0.245	0.655
O=c1[nH]nc(-c2ccc(N3CCN(CCO)CC3)c([N+](=O)[O-])c2)c2ccccc12	0.242	0.616
O=[N+]([O-])c1ccc(OCCO)c([N+](=O)[O-])c1	0.25	0.618
COc1nsc2cc([N+](=O)[O-])cc(N)c12	0.248	0.631
CCOC(=O)C1=C(C)NC(=O)NC1c1ccc(OS(=O)(=O)c2ccc(C)cc2)cc1 (stereo unspecified)	0.231	0.624
CCOC(=O)CC(NS(=O)(=O)c1ccc(NC(C)=O)cc1)c1ccc(OCC)cc1 (stereo unspecified)	0.251	0.593

Structure (SMILES)	plate-normalized OD600 growth (temperature: 15°C, 48 h)	plate-normalized OD600 growth (temperature: 37°C, 24 h)
OC1CCC(Nc2ncc3nc(Nc4c(F)cc(F)cc4F)n([C@H]4CCOC4)c3n2)CC1 (stereo partly specified)	0.24	0.658
CCCCN1/C(=C2/SC(=S)N(CC)C2=O)Sc2ccc(OC)cc21	0.252	0.607
Cc1c(NC(=O)c2ccc(N)cc2)c(=O)n(-c2ccccc2)n1C	0.248	0.629
CC(=O)/C(=C\N(C)C)Sc1ccc(Cl)cc1	0.232	0.604
O=C(N/N=C/c1cc2c(cc1Br)OCO2)C1COc2ccccc2O1 (stereo unspecified)	0.235	0.608
O=S(=O)(Nc1cccc2cccnc12)c1cc(Cl)c(Cl)cc1Cl	0.241	0.613
O=C(Nc1cccc(-c2nc3cc(Cl)ccc3o2)c1)c1ccc(-c2ccc(Cl)cc2)o1	0.25	0.61
CC1=CC(C)(C)NC(=S)N1	0.24	0.601
O=C(O)CSC1CCS(=O)(=O)C1 (stereo unspecified)	0.228	0.62
COc1ccccc1CNC(=O)C(=O)NC(C)C	0.231	0.616
COc1cccc(NC(=O)CSc2nc3ccccc3o2)c1	0.252	0.615
Cc1ccc(NC(=O)c2c3c(nc4ccccc24)CCCC3)cc1	0.239	0.614
CC(C)(C)n1ncc(N/N=C/c2ccc(Cl)cc2)c(Cl)c1=O	0.238	0.605
O=C(COC(=O)c1cccc(N2C(=O)CCC2=O)c1)c1ccccc1	0.24	0.611
CNS(=O)(=O)c1cc(-c2nnc(Nc3ccc(OC(F)(F)Cl)cc3)c3ccccc23)ccc1C	0.239	0.614
CCOC(=O)c1nnn(-c2nonc2N)c1CN1CCCCCC1	0.229	0.617
Cn1c(-c2ccccc2)nn(Cn2c(=S)sc3ccccc32)c1=S	0.251	0.61
CC1CCC2(CC1)NC(=O)c1ccccc1N2 (stereo unspecified)	0.251	0.594
CCOc1ccc(S(=O)(=O)NCCC23CC4CC(CC(C4)C2)C3)cc1	0.244	0.614
O=C(Nc1ccc(Cl)cc1)c1cc(S(=O)(=O)N2CCCCC2)ccc1Cl	0.247	0.658
O=C(Nc1nnc(CSCc2ccccc2)s1)c1ccc(Cl)cc1	0.24	0.622
O=[N+]([O-])c1ccc(C2CSc3c4ncnc-4ncn32)cc1 (stereo unspecified)	0.255	0.652
CC(C)n1cc(C#N)c(=O)n(Cc2ccccc2)c1=O	0.246	0.622
CCOC(=O)C(C(C)=O)C(c1ccccc1)C(C#N)C#N (stereo unspecified)	0.24	0.614
COc1cc(/C=N/Nc2ccc(Cl)nn2)ccc1O	0.23	0.653

Structure (SMILES)	plate-normalized OD600 growth (temperature: 15°C, 48 h)	plate-normalized OD600 growth (temperature: 37°C, 24 h)
Cc1nn(C)c(C)c1NS(=O)(=O)c1cc(Cl)sc1Cl	0.228	0.663
Cc1ccc(S(=O)(=O)N2CCC(N)=N2)cc1	0.255	0.661
CC(=O)CC(C)=Nc1ccc(C(F)(F)F)cc1	0.243	0.611
Cc1c(N)cc(N)cc1NC(=O)c1ccccc1	0.254	0.61
CCOC(=O)c1cc2c(nc1C)-c1ccccc1C2=Nc1ccc2c(c1)Cc1ccccc1-2	0.239	0.592
Cc1cc(C=Nc2ccc(Cl)c(O)c2)c(C)n1-c1ccc(Cl)cc1	0.248	0.605
COc1cc2nc(NC(=O)c3ccc(Cl)cc3)[nH]c(=O)c2cc1OC	0.252	0.607
N#CC1=C2N=C(N)c3c(sc4c3CCCC4)N2C2=C(C(=O)CCC2)C1c1cccnc1 (stereo unspecified)	0.246	0.624
O=C(NC(CO)C(=O)O)c1cncc(O)c1 (stereo unspecified)	0.217	0.636
N#Cc1cc2nc3ccc4ccccc4c3nc2cc1C#N	0.241	0.609
O=[N+]([O-])c1ccc2c(c1)S(=O)(=O)N=C2Nc1cc(Cl)ccc1Cl	0.251	0.626
O=C(O)CSCC(=O)Nc1ccccc1	0.216	0.64
CCOc1ccc(CCNC(=O)Cn2nnc(-c3ccccc3)n2)cc1OCC	0.239	0.608
O=C1ON=C(CSc2ccccc2)/C1=C/c1ccc(Cl)cc1	0.254	0.63
O=C(CC(=O)Nc1cccc(Cl)c1)N/N=C\c1ccccc1	0.246	0.616
CCOc1ccc(NC(=O)CSc2nc(C)cc(COC)c2C#N)cc1	0.21	0.638
Cc1cc(NC(=NS(=O)(=O)c2ccc(Br)cc2)c2ccccc2)cc(C)c1O	0.251	0.652
CC(=O)C1C2=C(CC(C)(C)CC2=O)OC2=C1C(=O)CC(C)(C)C2	0.272	0.61
CSc1c(C#N)c(-c2cccs2)nn1C	0.249	0.647
N#Cc1ccc(Oc2ccc(Cl)cc2)nc1	0.244	0.633
COc1ccc(C=NCCN2Cc3ccccc3C2=O)cc1OC	0.248	0.641
CCC(=O)CSC1=C(C#N)C(c2ccc(Cl)cc2)C(C(C)=O)=C(C)N1 (stereo unspecified)	0.251	0.615
CCSCCSc1nnc2n(N)cnn12	0.236	0.609
C(=N\Nc1nc(N2CCCCC2)nc(N2CCCCC2)n1)/c1cccnc1	0.263	0.631
O=C1NCCCC1C(=O)Nc1ccc(NC(=O)C2CCCNC2=O)cc1 (stereo unspecified)	0.256	0.644

Structure (SMILES)	plate-normalized OD600 growth (temperature: 15°C, 48 h)	plate-normalized OD600 growth (temperature: 37°C, 24 h)
COc1ccc(C2(CNC(=O)C(c3ccccc3)c3ccccc3)CCOCC2)cc1OC	0.249	0.611
O=C(CSc1nc2ccc(N=Cc3c4ccccc4cc4ccccc34)cc2s1)NCCOc1ccc(Cl)cc1	0.232	0.614
COC(=O)c1nnn(-c2nc(N3CCCCC3)nc(N3CCCCC3)n2)c1C	0.25	0.623
COc1ccc(N=C2SCC(=O)N2/N=C/c2ccccc2C(=O)O)cc1	0.24	0.609
CC(C)CNc1nc(N2CCN(CC3CCCOC3)CC2)ncc1C(=O)NCc1ccccc1 (stereo unspecified)	0.262	0.612
CC(c1ccccc1)n1c(COc2ccccc2)nc2ccccc21 (stereo unspecified)	0.248	0.632
COc1ccc(OC)c(C2CC(=O)c3c([nH]c(C(=O)OC4CCCCCC4)c3C)C2)c1 (stereo unspecified)	0.244	0.612
Cc1cccc(-n2c(C)cc(C=Nc3ccc(Cl)cc3O)c2C)c1	0.249	0.613
COc1ccc(CNc2ccccc2)cc1Br	0.233	0.628
C/C(=N/Nc1nnc2c(n1)[nH]c1ccccc12)c1nnn(-c2nonc2N)c1C	0.251	0.61
Cc1nnc(SCC(=O)Nc2ccc(Br)cn2)[nH]c1=O	0.265	0.63
CCOc1ccc(S(=O)(=O)N2CCN(c3ccc(C)cc3C)CC2)c2ccccc12	0.222	0.631
CCN(C(=S)NCc1ccccc1)C1CCCCC1	0.224	0.611
CCOc1ccc(CC(=O)C2C(=O)CCCC2=O)cc1OCC	0.234	0.606
CN(CCOC(=O)/C=C/c1ccccc1)C1=NS(=O)(=O)c2ccccc21	0.249	0.611
O=C(Cn1nc(-c2ccccc2)nc1-c1ccccc1)N1CCCc2ccccc21	0.256	0.609
O=C(NC(=S)Nc1ccc(Cc2ccncc2)cc1)c1cccc2ccccc12	0.259	0.614
Nn1c(CSc2nc3ccccc3s2)nnc1CSc1nc2ccccc2s1	0.228	0.626
O=C1CC(c2ccccc2)=NO1	0.243	0.607
O=C(/C=C/c1cccs1)C(C(=O)c1ccccc1)=C1SCCCCS1	0.244	0.615
CCc1ccc(NC(=O)CCC(=O)N/N=C/c2cccc(Cl)c2)cc1	0.263	0.616
CCc1nc2ccccc2c(C(=O)Nc2cccc(Cl)c2)c1C	0.251	0.638
CCCCCCCCNC(=O)C(=O)Nc1cccc(F)c1	0.244	0.564

No new results follow: 4 of the compounds above.
Structure (SMILES)	plate-normalized OD600 growth (temperature: 15°C, 48 h)	plate-normalized OD600 growth (temperature: 37°C, 24 h)
CSc1c(C#N)c(-c2cccs2)nn1C	0.249	0.647
N#Cc1ccc(Oc2ccc(Cl)cc2)nc1	0.244	0.633
COc1ccc(C=NCCN2Cc3ccccc3C2=O)cc1OC	0.248	0.641
CCC(=O)CSC1=C(C#N)C(c2ccc(Cl)cc2)C(C(C)=O)=C(C)N1 (stereo unspecified)	0.251	0.615

From the supplement of paper PMC4371806
